Test results as given in patent US20180231562A1.
These are yes or no findings as the source states them, for the method shown. Binding seen in cells or lysates may run through a third protein. Some entries that bind do so weakly or less than the wild type.

Amino acid sequences for entries named in this document (tags omitted). Residues count along the entry.
UniProt P20333, residues 23-461: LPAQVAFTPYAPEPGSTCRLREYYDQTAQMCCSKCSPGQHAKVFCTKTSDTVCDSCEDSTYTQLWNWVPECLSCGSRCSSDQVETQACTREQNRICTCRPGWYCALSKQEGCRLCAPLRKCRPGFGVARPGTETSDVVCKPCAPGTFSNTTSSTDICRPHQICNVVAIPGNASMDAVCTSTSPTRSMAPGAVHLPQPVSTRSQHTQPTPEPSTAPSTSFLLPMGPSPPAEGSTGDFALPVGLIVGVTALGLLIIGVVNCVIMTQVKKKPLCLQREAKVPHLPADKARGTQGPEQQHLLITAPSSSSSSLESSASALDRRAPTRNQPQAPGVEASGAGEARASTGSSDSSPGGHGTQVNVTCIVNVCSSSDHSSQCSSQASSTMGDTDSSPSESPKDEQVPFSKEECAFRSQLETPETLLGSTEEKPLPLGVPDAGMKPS

Key:
[1] = target: TNFR2 on PHA-L and IL-2 expanded primary human T cells (human) (UniProt P20333); experiment: co-immunoprecipitation with anti-TNFR2 from lysates of human T cells mixed with compound-loaded NS0-mTNF cells; TRAF-2 immunoblot
[2] = target: TNFR2 on PHA-L and IL-2 expanded primary human T cells (human) (UniProt P20333); experiment: co-immunoprecipitation with anti-TNFR2 from lysates of human T cells mixed with NS0-mTNF cells; TRAF-2 immunoblot
[3] = target: TNFR2 on PHA-L and IL-2 expanded primary human T cells (human) (UniProt P20333); experiment: Co-immunoprecipitation: TNFR2 pulled from lysates of T cells mixed with NS0 cells (polyclonal goat anti-human TNFR2, protein G sepharose), SDS-PAGE, immunoblot with anti-TRAF-2

Measured: binding

B1: TRAF-2 (protein, UniProt Q12933 2-501, looked up)
chain: AAASVTPPGSLELLQPGFSKTLLGTKLEAKYLCSACRNVLRRPFQAQCGHRYCSFCLASILSSGPQNCAACVHEGIYEEGISILESSSAFPDNAARREVESLPAVCPSDGCTWKGTLKEYESCHEGRCPLMLTECPACKGLVRLGEKERHLEHECPERSLSCRHCRAPCCGADVKAHHEVCPKFPLTCDGCGKKKIPREKFQDHVKTCGKCRVPCRFHAIGCLETVEGEKQQEHEVQWLREHLAMLLSSVLEAKPLLGDQSHAGSELLQRCESLEKKTATFENIVCVLNREVERVAMTAEACSRQHRLDQDKIEALSSKVQQLERSIGLKDLAMADLEQKVLEMEASTYDGVFIWKISDFARKRQEAVAGRIPAIFSPAFYTSRYGYKMCLRIYLNGDGTGRGTHLSLFFVVMKGPNDALLRWPFNQKVTLMLLDQNNREHVIDAFRPDVTSSSFQRPVNDMNIASGCPLFCPVSKMEAKNSYVRDDAIFIKAIVDLTGL
binds: all assays above
